{"source": "PubChem BioAssay AID504795 (Drosophila RNAi Screening Center, 2011)", "assay": "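Fly genes whose loss alters neurite growth or neural cell form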 (primary screen)", "system": "primary Drosophila neurons and glia", "reagent": "long dsRNA against Drosophila genes, 250 ng dsRNA per well", "duration": "one week", "measurement": "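Descriptive morphology terms assigned by visual inspection of live automated images of GFP-marked cells, taken one week after adding 250 ng dsRNA per well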", "note": "The reagents shown are a selection, not the whole library. 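Every listed dsRNA shows some phenotype; how reagents were selected for listing is not stated.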 The numbers tell different reagents against one gene apart. Names joined by + are all predicted targets of the reagent."}
{"Target gene": "crok", "reagent": 1, "phenotype seen, replicate 1": "abnormal cell clusters"}
{"Target gene": "mRNA-cap", "reagent": 1, "phenotype seen, replicate 1": "weaker green signal"}
{"Target gene": "kl-5 (retired record)", "reagent": 1, "phenotype seen, replicate 1": "abnormal cell clusters"}
{"Target gene": "Lsp1alpha", "reagent": 1, "phenotype seen, replicate 1": "axon bundles split apart"}
{"Target gene": "CYLD", "reagent": 1, "phenotype seen, replicate 1": "sheet-like cell extensions"}
{"Target gene": "RpL12", "reagent": 1, "phenotype seen, replicate 1": "too many neurite branches"}
{"Target gene": "Atf6", "reagent": 1, "phenotype seen, replicate 1": "axon bundles split apart"}
{"Target gene": "CG44085", "reagent": 1, "phenotype seen, replicate 1": "sheet-like cell extensions"}
{"Target gene": "His3:CG33818 + His3:CG33815 + His3:CG33857 + 20 more", "reagent": 1, "phenotype seen, replicate 1": "axon bundles split apart"}
{"Target gene": "CLS", "reagent": 1, "phenotype seen, replicate 1": "too many neurite branches"}
{"Target gene": "RpL13A", "reagent": 1, "phenotype seen, replicate 1": "abnormal cell clusters"}
{"Target gene": "CG5339", "reagent": 1, "phenotype seen, replicate 1": "reduced axon outgrowth"}
{"Target gene": "ETHR", "reagent": 1, "phenotype seen, replicate 1": "axon bundles split apart"}
{"Target gene": "CG11977", "reagent": 1, "phenotype seen, replicate 1": "axon bundles split apart"}
{"Target gene": "CG5953", "reagent": 1, "phenotype seen, replicate 1": "abnormal cell clusters"}
{"Target gene": "LysP", "reagent": 1, "phenotype seen, replicate 1": "axon bundles split apart"}
{"Target gene": "CG34409", "reagent": 1, "phenotype seen, replicate 1": "axon bundles split apart"}
{"Target gene": "CG34409", "reagent": 2, "phenotype seen, replicate 1": "reduced axon outgrowth"}
{"Target gene": "pAbp", "reagent": 1, "phenotype seen, replicate 1": "too many neurite branches"}
{"Target gene": "mRpL3", "reagent": 1, "phenotype seen, replicate 1": "axon bundles split apart"}
{"Target gene": "Frl", "reagent": 1, "phenotype seen, replicate 1": "axon bundles split apart"}
{"Target gene": "Cdc45", "reagent": 1, "phenotype seen, replicate 1": "reduced axon outgrowth"}
{"Target gene": "CG14456", "reagent": 1, "phenotype seen, replicate 1": "abnormal cell clusters"}
{"Target gene": "CG32073", "reagent": 1, "phenotype seen, replicate 1": "abnormal cell clusters"}
{"Target gene": "CG32073", "reagent": 2, "phenotype seen, replicate 1": "too many neurite branches"}
{"Target gene": "CG4984 + CG4975", "reagent": 1, "phenotype seen, replicate 1": "axon bundles split apart"}
{"Target gene": "RpL34a", "reagent": 1, "phenotype seen, replicate 1": "too many neurite branches"}
{"Target gene": "CG18095", "reagent": 1, "phenotype seen, replicate 1": "too many neurite branches"}
{"Target gene": "Srg2 + CG42826", "reagent": 1, "phenotype seen, replicate 1": "cell fragments present"}
{"Target gene": "CG10102 (retired record)", "reagent": 1, "phenotype seen, replicate 1": "axon bundles split apart"}
{"Target gene": "Rpn6", "reagent": 1, "phenotype seen, replicate 1": "axon bundles split apart"}
{"Target gene": "Polr3I", "reagent": 1, "phenotype seen, replicate 1": "cell fragments present"}
{"Target gene": "Brca2", "reagent": 1, "phenotype seen, replicate 1": "weaker green signal"}
{"Target gene": "mv", "reagent": 1, "phenotype seen, replicate 1": "abnormal cell clusters"}
{"Target gene": "CG4712", "reagent": 1, "phenotype seen, replicate 1": "axon bundles split apart"}
{"Target gene": "Cp18", "reagent": 1, "phenotype seen, replicate 1": "too many neurite branches"}
{"Target gene": "Cap-G", "reagent": 1, "phenotype seen, replicate 1": "axon bundles split apart"}
{"Target gene": "CG34382", "reagent": 1, "phenotype seen, replicate 1": "abnormal cell clusters"}
{"Target gene": "eIF4E5", "reagent": 1, "phenotype seen, replicate 1": "too many neurite branches"}
{"Target gene": "PIG-C", "reagent": 1, "phenotype seen, replicate 1": "too many neurite branches"}
{"Target gene": "CG34353", "reagent": 1, "phenotype seen, replicate 1": "too many neurite branches"}
{"Target gene": "TM9SF4", "reagent": 1, "phenotype seen, replicate 1": "too many neurite branches"}
{"Target gene": "BomS3", "reagent": 1, "phenotype seen, replicate 1": "abnormal cell clusters"}
{"Target gene": "Sec61beta", "reagent": 1, "phenotype seen, replicate 1": "axon bundles split apart", "phenotype seen, replicate 2": "fewer cells"}
{"Target gene": "Sec61beta", "reagent": 2, "phenotype seen, replicate 1": "axon bundles split apart"}
{"Target gene": "CG30376", "reagent": 1, "phenotype seen, replicate 1": "sheet-like cell extensions"}
{"Target gene": "CG31140", "reagent": 1, "phenotype seen, replicate 1": "too many neurite branches"}

A run of entries of the results above, for reference:
{"Target gene": "CG11977", "reagent": 1, "phenotype seen, replicate 1": "axon bundles split apart"}
{"Target gene": "CG5953", "reagent": 1, "phenotype seen, replicate 1": "abnormal cell clusters"}
{"Target gene": "LysP", "reagent": 1, "phenotype seen, replicate 1": "axon bundles split apart"}
{"Target gene": "CG34409", "reagent": 1, "phenotype seen, replicate 1": "axon bundles split apart"}
